No constants are given. Whether binding was seen depends on the method and setting. Binding can be weak; no strength is given.
Molecular target: ArWASp (Wiskott-Aldrich syndrome protein of Ascochyta rabiei) (Ascochyta rabiei)
Experiment: two-hybrid; split-ubiquitin based DUALhunter system in yeast cytoplasm, strain NMY51, vectors pGDHB1 and pGPR3-N; growth on QDO (SD/-L/-W/-A/-H) against DDO (SD/-L/-W), X-gal overlay for the self-interaction; photographed after 48 h

The chains behind the UniProt entries cited, without tags or fusion partners. Where a name states a change or a piece, a line headed by the entry shows the natural chain unless it says otherwise.
UniProt A0A162ZXY0: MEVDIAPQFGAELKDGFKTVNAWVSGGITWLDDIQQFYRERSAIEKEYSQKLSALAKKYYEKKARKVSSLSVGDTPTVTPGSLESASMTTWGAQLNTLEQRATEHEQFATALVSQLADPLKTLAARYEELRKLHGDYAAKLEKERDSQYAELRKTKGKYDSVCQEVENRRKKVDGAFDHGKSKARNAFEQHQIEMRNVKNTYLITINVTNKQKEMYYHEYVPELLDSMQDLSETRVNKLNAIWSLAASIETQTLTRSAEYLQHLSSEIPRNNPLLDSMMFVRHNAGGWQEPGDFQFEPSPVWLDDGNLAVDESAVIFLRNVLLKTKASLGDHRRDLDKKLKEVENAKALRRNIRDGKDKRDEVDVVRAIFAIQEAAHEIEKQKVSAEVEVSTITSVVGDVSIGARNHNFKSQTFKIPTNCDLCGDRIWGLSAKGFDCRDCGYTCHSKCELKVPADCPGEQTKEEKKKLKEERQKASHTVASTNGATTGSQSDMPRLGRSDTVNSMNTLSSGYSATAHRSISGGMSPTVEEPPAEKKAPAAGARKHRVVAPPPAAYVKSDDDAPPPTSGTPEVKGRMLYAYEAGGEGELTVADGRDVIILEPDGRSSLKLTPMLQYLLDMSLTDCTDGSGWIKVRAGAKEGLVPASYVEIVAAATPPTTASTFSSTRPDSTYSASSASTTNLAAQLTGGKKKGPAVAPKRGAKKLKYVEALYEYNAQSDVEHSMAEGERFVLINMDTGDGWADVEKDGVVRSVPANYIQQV

For “ArF-BAR (F-BAR domain-containing protein of Ascochyta rabiei) (from UniProt A0A162ZXY0)”, the binding was “binds”.
